In publication doi:10.1101/2022.09.08.507146:
These are yes or no findings as the source states them, for the method shown. Some results given as binding are weak or reduced against the parent protein; the word gives no strength.

B1: Prosthecobacter dejongeii BtubB (protein)
chain: MREILSIHVGQCGNQIADSFWRLALREHGLTEAGTLKEGSNAAANSNMEVFFHKVRDGKYVPRAVLVDLEPGVIARIEGGDMSQLFDESSIVRKIPGAANNWARGYNVEGEKVIDQIMNVIDSAVEKTKGLQGFLMTHSIGGGSGSGLGSLILERLRQAYPKKRIFTFSVVPSPLISDSAVEPYNAILTLQRILDNADGAVLLDNEALFRIAKAKLNRSPNYMDLNNIIALIVSSVTASLRFPGKLNTDLSEFVTNLVPFPGNHFLTASFAPMRGAGQEGQVRTNFPDLARETFAQDNFTAAIDWQQGVYLAASALFRGDVKAKDVDENMATIRKSLNYASYMPASGGLKLGYAETAPEGFASSGLALVNHTGIAAVFERLIAQFDIMFDNHAYTHWYENAGVSRDMMAKARNQIATLAQSYRDAS

Legend:
[1] = target: Prosthecobacter dejongeii wild-type BtubAB heterodimer (Prosthecobacter dejongeii) (UniProt Q8GCC5); test: negative-stain electron microscopy
[2] = target: T1, Prosthecobacter dejongeii BtubA* (R284G, R286D, F287G M-loop mutant of BtubA) (Prosthecobacter dejongeii); test: cryo-EM structure
T1 sequence: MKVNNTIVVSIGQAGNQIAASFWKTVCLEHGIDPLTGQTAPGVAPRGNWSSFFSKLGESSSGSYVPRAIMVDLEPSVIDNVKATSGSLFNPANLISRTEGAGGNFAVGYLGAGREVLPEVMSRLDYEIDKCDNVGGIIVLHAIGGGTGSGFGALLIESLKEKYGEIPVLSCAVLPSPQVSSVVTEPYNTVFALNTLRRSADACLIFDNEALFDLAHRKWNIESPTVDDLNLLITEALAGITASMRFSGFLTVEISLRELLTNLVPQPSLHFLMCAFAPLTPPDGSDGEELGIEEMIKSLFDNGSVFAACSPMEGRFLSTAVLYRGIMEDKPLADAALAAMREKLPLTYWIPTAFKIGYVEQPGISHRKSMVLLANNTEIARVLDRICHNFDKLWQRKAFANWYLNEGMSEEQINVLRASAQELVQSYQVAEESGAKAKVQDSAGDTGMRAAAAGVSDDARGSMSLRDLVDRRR

Row | Molecule | binding [1] | binding [2]
1 | Prosthecobacter dejongeii wild-type BtubAB heterodimer (from UniProt Q8GCC5 1-473) (complex) | binds | 
2 | B1 |  | binds
